The text below walks through data of publication doi:10.1101/2021.12.22.473497.

The chains behind the UniProt entries cited, without tags or fusion partners. Where a name states a change or a piece, a line headed by the entry shows the natural chain unless it says otherwise.
UniProt F4J4R5: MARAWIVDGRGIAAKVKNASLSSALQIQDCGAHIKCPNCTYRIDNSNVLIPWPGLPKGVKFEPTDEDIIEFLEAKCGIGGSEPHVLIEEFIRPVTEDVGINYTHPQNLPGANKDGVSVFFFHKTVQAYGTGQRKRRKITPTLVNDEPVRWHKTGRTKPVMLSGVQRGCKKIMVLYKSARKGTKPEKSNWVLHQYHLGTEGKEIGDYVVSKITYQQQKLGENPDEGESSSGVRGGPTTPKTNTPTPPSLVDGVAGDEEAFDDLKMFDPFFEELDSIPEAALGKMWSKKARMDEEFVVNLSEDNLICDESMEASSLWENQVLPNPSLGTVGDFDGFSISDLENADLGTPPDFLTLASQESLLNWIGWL

In experiment [1] the target is T1, RBR-NLuc in stable transgenic Arabidopsis seedlings (Arabidopsis thaliana) (UniProt Q9LKZ3).
T1 sequence: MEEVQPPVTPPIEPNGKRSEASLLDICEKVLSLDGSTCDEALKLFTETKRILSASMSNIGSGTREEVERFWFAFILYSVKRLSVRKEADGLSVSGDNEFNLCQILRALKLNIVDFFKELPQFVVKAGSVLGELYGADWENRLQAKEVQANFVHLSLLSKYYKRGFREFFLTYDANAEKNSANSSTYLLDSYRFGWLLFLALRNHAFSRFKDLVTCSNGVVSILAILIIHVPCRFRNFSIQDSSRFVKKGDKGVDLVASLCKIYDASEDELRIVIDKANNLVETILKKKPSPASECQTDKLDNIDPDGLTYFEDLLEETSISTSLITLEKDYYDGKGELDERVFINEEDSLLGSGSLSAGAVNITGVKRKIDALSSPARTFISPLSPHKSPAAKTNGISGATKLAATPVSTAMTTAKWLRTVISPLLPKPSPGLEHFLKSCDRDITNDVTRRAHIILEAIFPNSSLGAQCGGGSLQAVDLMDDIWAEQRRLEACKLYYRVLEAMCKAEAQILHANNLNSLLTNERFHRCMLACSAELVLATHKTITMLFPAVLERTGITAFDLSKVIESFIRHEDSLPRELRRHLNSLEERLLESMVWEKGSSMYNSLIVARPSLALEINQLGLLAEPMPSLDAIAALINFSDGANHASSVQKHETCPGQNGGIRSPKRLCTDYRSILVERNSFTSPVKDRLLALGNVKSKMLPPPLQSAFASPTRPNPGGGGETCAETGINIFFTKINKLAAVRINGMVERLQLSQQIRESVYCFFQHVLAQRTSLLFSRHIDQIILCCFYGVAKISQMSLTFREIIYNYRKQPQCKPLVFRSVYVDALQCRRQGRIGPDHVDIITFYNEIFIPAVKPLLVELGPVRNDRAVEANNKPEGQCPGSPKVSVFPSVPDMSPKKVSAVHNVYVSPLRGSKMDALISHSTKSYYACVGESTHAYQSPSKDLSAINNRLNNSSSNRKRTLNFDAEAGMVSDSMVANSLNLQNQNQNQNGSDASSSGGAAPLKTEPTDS
Briefly: split reporter.

For experiment [2], the target named is T2, RBR, split-luciferase fusion expressed in N. benthamiana leaves (Arabidopsis thaliana) (UniProt Q9LKZ3).
T2 sequence: T1 sequence
Description: split reporter.

The target of experiment [3] is T3, BD-RBR^NF (RBR with N849F fused to the GAL4 DNA binding domain) (Arabidopsis thaliana) (UniProt Q9LKZ3).
T3 sequence: T1 sequence with N849F
Briefly: two-hybrid.

Experiment [4] concerns the target T4, BD-RBR (RETINOBLASTOMA-RELATED1 protein fused to the GAL4 DNA binding domain) (Arabidopsis thaliana) (UniProt Q9LKZ3).
T4 sequence: T1 sequence
Briefly: two-hybrid.

Numbering of substitutions follows the chain as printed. Results are given in words; binding and its absence hold for the method and conditions named. For part of these data: Binding can be weak; no strength is given. Tags and fused reporters may be left off the sequences shown. For part of these data: In cells and extracts the contact can be indirect.

For “CLuc-NAC044 in stable transgenic Arabidopsis seedlings”, the binding result in experiment [1] is listed as “binds”.

For the substance “NAC044, split-luciferase fusion expressed in N. benthamiana leaves (Arabidopsis thaliana)”, the binding result in experiment [2] is on record as “binds”.

Take “AD-NAC044 (NAC044 fused to the GAL4 activation domain) (from UniProt F4J4R5)”: the binding entry in experiment [3] is listed as “no binding”; in experiment [4], “binds”. For the substance “AD-NAC044^GCG (LXCXE-to-GXCXG-mutated NAC044 fused to the GAL4 activation domain) (Arabidopsis thaliana)”, the binding result in experiment [3] and in experiment [4] was “no binding” each time.
